Source: the supplement of paper PMC7661543
± gives the standard deviation of the averaged measurements. The effect of the compound repeats well; differences between the knockouts mostly do not.

Tested on: SKBR3
Assay: relative cell number vs DMSO control (72 h) (% of DMSO); higher = less growth inhibition (more cells)
Procedure: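 QMAP-Seq: a pool of 5 breast cancer cell lines (ZR-75-1, SKBR3, HCC-38, MDA-MB-231, BT-20), each carrying 12 doxycycline-inducible Cas9 sgRNA perturbations (11 knockouts plus non-targeting sgNT), was treated with compounds for 72 h at four 10-fold doses (10 nM-10 uM or 1 nM-1 uM range). Barcodes were amplified and sequenced, and cell number was interpolated from 293T spike-in standard curves. The result is expressed as % of the median of DMSO wells. Two biological replicates.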

CC(C)n1cnc2c(NCCc3ccc(O)cc3)nc(-c3csc4ccccc34)nc21 [StemRegenin1]
Conditions | relative cell number
sgRNA knockout: sgATF3, 10 nM | 108 ± 36
sgRNA knockout: sgATF3, 100 nM | 112 ± 21
sgRNA knockout: sgATF3, 1000 nM | 95.9 ± 20
sgRNA knockout: sgATF3, 10000 nM | 48 ± 7.2
sgRNA knockout: sgATF4, 10 nM | 80.1 ± 2.3
sgRNA knockout: sgATF4, 100 nM | 96.1 ± 7.6
sgRNA knockout: sgATF4, 1000 nM | 100 ± 12
sgRNA knockout: sgATF4, 10000 nM | 37.9 ± 3
sgRNA knockout: sgATF6, 10 nM | 74.8 ± 7.6
sgRNA knockout: sgATF6, 100 nM | 105 ± 27
sgRNA knockout: sgATF6, 1000 nM | 94.7 ± 27
sgRNA knockout: sgATF6, 10000 nM | 42.4 ± 8.3
sgRNA knockout: sgATG7, 10 nM | 72.8 ± 3.5
sgRNA knockout: sgATG7, 100 nM | 106 ± 4.5
sgRNA knockout: sgATG7, 1000 nM | 80 ± 9.9
sgRNA knockout: sgATG7, 10000 nM | 44.3 ± 4.4
sgRNA knockout: sgERN1, 10 nM | 88.9 ± 6.8
sgRNA knockout: sgERN1, 100 nM | 99.4 ± 4
sgRNA knockout: sgERN1, 1000 nM | 78.3 ± 12
sgRNA knockout: sgERN1, 10000 nM | 42.9 ± 16
sgRNA knockout: sgHSF1, 10 nM | 69.9 ± 9.6
sgRNA knockout: sgHSF1, 100 nM | 99.5 ± 15
sgRNA knockout: sgHSF1, 1000 nM | 94.5 ± 1.1
sgRNA knockout: sgHSF1, 10000 nM | 41 ± 4.8
sgRNA knockout: sgHSF2, 10 nM | 76.8 ± 14
sgRNA knockout: sgHSF2, 100 nM | 89.6 ± 13
sgRNA knockout: sgHSF2, 1000 nM | 103 ± 26
sgRNA knockout: sgHSF2, 10000 nM | 38.6 ± 11
sgRNA knockout: sgKEAP1, 10 nM | 81.5 ± 7.8
sgRNA knockout: sgKEAP1, 100 nM | 105 ± 1.1
sgRNA knockout: sgKEAP1, 1000 nM | 94.6 ± 23
sgRNA knockout: sgKEAP1, 10000 nM | 43 ± 3.2
sgRNA knockout: sgNFE2L2, 10 nM | 73.2 ± 30
sgRNA knockout: sgNFE2L2, 100 nM | 96.9 ± 16
sgRNA knockout: sgNFE2L2, 1000 nM | 97.5 ± 7.2
sgRNA knockout: sgNFE2L2, 10000 nM | 42.4 ± 15
sgRNA knockout: sgSLC35F2, 10 nM | 78.8 ± 15
sgRNA knockout: sgSLC35F2, 100 nM | 77 ± 16
sgRNA knockout: sgSLC35F2, 1000 nM | 69.2 ± 28
sgRNA knockout: sgSLC35F2, 10000 nM | 37.1 ± 2.3
sgRNA knockout: sgXBP1, 10 nM | 88.1 ± 32
sgRNA knockout: sgXBP1, 100 nM | 97.3 ± 15
sgRNA knockout: sgXBP1, 1000 nM | 100 ± 31
sgRNA knockout: sgXBP1, 10000 nM | 36.9 ± 6.6

O=C1NC(=O)[C@@H](c2cn3c4c(cccc24)CCC3)[C@@H]1c1c[nH]c2ccccc12 [Tivantinib]
Conditions | relative cell number
sgRNA knockout: sgATF3, 10 nM | 99.3 ± 14
sgRNA knockout: sgATF3, 100 nM | 78.4 ± 18
sgRNA knockout: sgATF3, 1000 nM | 16.8 ± 5.1
sgRNA knockout: sgATF3, 10000 nM | 8.43 ± 3.5
sgRNA knockout: sgATF4, 10 nM | 90.4 ± 8
sgRNA knockout: sgATF4, 100 nM | 87.2 ± 0.97
sgRNA knockout: sgATF4, 1000 nM | 18.7 ± 2.3
sgRNA knockout: sgATF4, 10000 nM | 12.8 ± 5.4
sgRNA knockout: sgATF6, 10 nM | 99.46 ± 0.46
sgRNA knockout: sgATF6, 100 nM | 93.3 ± 32
sgRNA knockout: sgATF6, 1000 nM | 15.4 ± 1.7
sgRNA knockout: sgATF6, 10000 nM | 12 ± 1.1
sgRNA knockout: sgATG7, 10 nM | 87.6 ± 24
sgRNA knockout: sgATG7, 100 nM | 98.8 ± 16
sgRNA knockout: sgATG7, 1000 nM | 19.5 ± 5.3
sgRNA knockout: sgATG7, 10000 nM | 8.63 ± 2.4
sgRNA knockout: sgERN1, 10 nM | 101 ± 16
sgRNA knockout: sgERN1, 100 nM | 94.2 ± 16
sgRNA knockout: sgERN1, 1000 nM | 13.7 ± 3.1
sgRNA knockout: sgERN1, 10000 nM | 9.33 ± 2.9
sgRNA knockout: sgHSF1, 10 nM | 91.96 ± 0.16
sgRNA knockout: sgHSF1, 100 nM | 86.3 ± 10
sgRNA knockout: sgHSF1, 1000 nM | 16 ± 3.4
sgRNA knockout: sgHSF1, 10000 nM | 9.28 ± 0.12
sgRNA knockout: sgHSF2, 10 nM | 81.39 ± 0.39
sgRNA knockout: sgHSF2, 100 nM | 81.8 ± 26
sgRNA knockout: sgHSF2, 1000 nM | 17.1 ± 3.7
sgRNA knockout: sgHSF2, 10000 nM | 9.44 ± 5.2
sgRNA knockout: sgKEAP1, 10 nM | 86.5 ± 7.3
sgRNA knockout: sgKEAP1, 100 nM | 99.2 ± 8.1
sgRNA knockout: sgKEAP1, 1000 nM | 17.5 ± 9.2
sgRNA knockout: sgKEAP1, 10000 nM | 10.9 ± 4.3
sgRNA knockout: sgNFE2L2, 10 nM | 90.4 ± 18
sgRNA knockout: sgNFE2L2, 100 nM | 89.5 ± 3.2
sgRNA knockout: sgNFE2L2, 1000 nM | 19.6 ± 0.91
sgRNA knockout: sgNFE2L2, 10000 nM | 8.35 ± 2.4
sgRNA knockout: sgSLC35F2, 10 nM | 93.1 ± 20
sgRNA knockout: sgSLC35F2, 100 nM | 90.5 ± 10
sgRNA knockout: sgSLC35F2, 1000 nM | 18.1 ± 6.1
sgRNA knockout: sgSLC35F2, 10000 nM | 10.6 ± 0.34
sgRNA knockout: sgXBP1, 10 nM | 101 ± 4.9
sgRNA knockout: sgXBP1, 100 nM | 108 ± 25
sgRNA knockout: sgXBP1, 1000 nM | 19.5 ± 6.2
sgRNA knockout: sgXBP1, 10000 nM | 11 ± 0.59

CC[C@]1(O)C[C@H]2CN(CCc3c([nH]c4ccccc34)[C@@](C(=O)OC)(c3cc4c(cc3OC)N(C=O)[C@H]3[C@@](O)(C(=O)OC)[C@H](OC(C)=O)[C@]5(CC)C=CCN6CC[C@]43[C@@H]65)C2)C1 [Vincristine]
Conditions | relative cell number
sgRNA knockout: sgATF3, 10 nM | 11.5 ± 3
sgRNA knockout: sgATF3, 100 nM | 12.6 ± 0.31
sgRNA knockout: sgATF3, 1000 nM | 10.2 ± 1.1
sgRNA knockout: sgATF3, 10000 nM | 7.67 ± 5
sgRNA knockout: sgATF4, 10 nM | 9.5 ± 2.2
sgRNA knockout: sgATF4, 100 nM | 8.24 ± 1.4
sgRNA knockout: sgATF4, 1000 nM | 8.36 ± 4.2
sgRNA knockout: sgATF4, 10000 nM | 14.7 ± 1.6
sgRNA knockout: sgATF6, 10 nM | 6.76 ± 4
sgRNA knockout: sgATF6, 100 nM | 4.61 ± 0.053
sgRNA knockout: sgATF6, 1000 nM | 12.1 ± 6.4
sgRNA knockout: sgATF6, 10000 nM | 6.32 ± 0.83
sgRNA knockout: sgATG7, 10 nM | 13 ± 4.6
sgRNA knockout: sgATG7, 100 nM | 8.34 ± 3.7
sgRNA knockout: sgATG7, 1000 nM | 14.9 ± 8.8
sgRNA knockout: sgATG7, 10000 nM | 7.38 ± 6.2
sgRNA knockout: sgERN1, 10 nM | 7.71 ± 1.8
sgRNA knockout: sgERN1, 100 nM | 8.34 ± 4.8
sgRNA knockout: sgERN1, 1000 nM | 7 ± 3.9
sgRNA knockout: sgERN1, 10000 nM | 7.92 ± 0.79
sgRNA knockout: sgHSF1, 10 nM | 9.18 ± 1.7
sgRNA knockout: sgHSF1, 100 nM | 7.64 ± 0.36
sgRNA knockout: sgHSF1, 1000 nM | 6.48 ± 1.9
sgRNA knockout: sgHSF1, 10000 nM | 12.3 ± 6.5
sgRNA knockout: sgHSF2, 10 nM | 12.3 ± 3.8
sgRNA knockout: sgHSF2, 100 nM | 8.62 ± 1.7
sgRNA knockout: sgHSF2, 1000 nM | 12.1 ± 1.5
sgRNA knockout: sgHSF2, 10000 nM | 11.1 ± 2.8
sgRNA knockout: sgKEAP1, 10 nM | 9.64 ± 1.3
sgRNA knockout: sgKEAP1, 100 nM | 4.15 ± 0.16
sgRNA knockout: sgKEAP1, 1000 nM | 9.51 ± 5.7
sgRNA knockout: sgKEAP1, 10000 nM | 11 ± 0.61
sgRNA knockout: sgNFE2L2, 10 nM | 14.3 ± 5.2
sgRNA knockout: sgNFE2L2, 100 nM | 5.77 ± 1.1
sgRNA knockout: sgNFE2L2, 1000 nM | 9.16 ± 5.9
sgRNA knockout: sgNFE2L2, 10000 nM | 8.42 ± 5.2
sgRNA knockout: sgSLC35F2, 10 nM | 10 ± 1.3
sgRNA knockout: sgSLC35F2, 100 nM | 7.36 ± 5
sgRNA knockout: sgSLC35F2, 1000 nM | 4.12 ± 1.8
sgRNA knockout: sgSLC35F2, 10000 nM | 8.24 ± 2.9
sgRNA knockout: sgXBP1, 10 nM | 8.39 ± 1.2
sgRNA knockout: sgXBP1, 100 nM | 9.24 ± 9.2
sgRNA knockout: sgXBP1, 1000 nM | 8.71 ± 0.62
sgRNA knockout: sgXBP1, 10000 nM | 7.54 ± 5.4
